In doi:10.1101/2023.06.14.544957:
Like-named read-outs stand apart in the source and are kept apart here. No constants are given. Whether binding was seen depends on the method and setting. In cells and extracts the contact can be indirect. A yes stands for co-enrichment or nearness to the bait. Other partners may have been found. Tags and fused reporters may be left off the sequences shown.

B1: WRNIP1 (protein, UniProt Q91XU0 1-660)
chain: MEVSGPEDDPFLSQLHQVQCPVCQQMMPAAHINSHLDRCLLLHPAGHAEPAAGSHRAGERAKGPSPPGAKRRRLSESSALKQPATPTAAESSEGEGEEGDDGGETESRESYDAPPTPSGARLIPDFPVARSSSPARKGMGKRPAAAAAAGSASPRSWDEAEAQEEEEAGVDGDGDADVDGEDDPGHWDADAADASFGVSAGRAHPRALAAEEIRQMLEGKPLADKMRPDTLQDYIGQSRAVGQETLLRSLLEANEIPSLILWGPPGCGKTTLAHIIANNSKKHSIRFVTLSATNAKTNDVRDVIKQAQNEKSFFKRKTILFIDEIHRFNKSQQDTFLPHVECGTITLIGATTENPSFQVNAALLSRCRVIVLEKLPVEAMVTILMRAINSLGIHVLDSSRPTDPLSHSSNCSSEPSVFIEDKAVDTLAYLSDGDARTGLNGLQLAVLARLSSRKVFCKKSGQTYSPSRVLITENDVKEGLQRSHILYDRAGEEHYNCISALHKAMRGSDQNASLYWLARMLEGGEDPLYVARRLVRFASEDIGLADPSALAQAVAAYQGCHFIGMPECEVLLAQCVVYFARAPKSIEVYSAYNNVKACLRSHQGPLPPVPLHLRNAPTRLMKDLGYGKGYKYNPMYSEPVDQDYLPEELRGVDFFKQRRC

How the values were obtained:
[1] = target: T1, HA-TurboID RNF12 (UniProt Q9WTV7); test: proximity labelling
T1 sequence: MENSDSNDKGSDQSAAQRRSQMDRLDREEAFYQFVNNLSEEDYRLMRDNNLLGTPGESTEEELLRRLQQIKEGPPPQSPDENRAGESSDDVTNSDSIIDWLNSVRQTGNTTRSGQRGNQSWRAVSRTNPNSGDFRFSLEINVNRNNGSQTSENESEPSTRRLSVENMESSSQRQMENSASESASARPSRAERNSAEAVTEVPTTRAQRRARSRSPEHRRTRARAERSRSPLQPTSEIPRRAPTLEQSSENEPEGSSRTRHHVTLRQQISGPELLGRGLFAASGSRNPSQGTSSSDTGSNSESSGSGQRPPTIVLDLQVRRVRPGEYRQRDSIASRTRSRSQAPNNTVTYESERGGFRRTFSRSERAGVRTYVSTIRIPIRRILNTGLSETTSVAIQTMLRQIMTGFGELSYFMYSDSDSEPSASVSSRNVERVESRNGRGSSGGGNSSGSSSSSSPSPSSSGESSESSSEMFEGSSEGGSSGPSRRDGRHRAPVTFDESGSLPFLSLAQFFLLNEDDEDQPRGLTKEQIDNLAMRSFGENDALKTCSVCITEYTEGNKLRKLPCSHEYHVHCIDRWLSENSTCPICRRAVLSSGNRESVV

[2] = target: T1, HA-TurboID RNF12; test: proximity labelling; remark: listed apart in the source

| Molecule | binding [1] | binding [2] |
| --- | --- | --- |
| REX1/ZFP42 (endogenous, mESCs) (from UniProt P22227 1-288) | binds |  |
| PCNA (from UniProt P17918 1-261) | binds |  |
| B1 |  | binds |
